Test results taken from the supplement of paper PMC3334620.
The full ranking holds about 33,000 sequences; the median of “E-score (-0.5 to 0.5)” is about -0.0034, and the highest 2% start at about 0.25. The list shows a part of the results.

Each sequence was assayed against T1, Yap3 (UniProt P38749) (assay: PBM E-score (8-mer binding enrichment) (E-score (-0.5 to 0.5)); higher = stronger / more preferred TF binding). Conditions: protein concentration: 100 nM; construct: GST-full length.
T1 sequence: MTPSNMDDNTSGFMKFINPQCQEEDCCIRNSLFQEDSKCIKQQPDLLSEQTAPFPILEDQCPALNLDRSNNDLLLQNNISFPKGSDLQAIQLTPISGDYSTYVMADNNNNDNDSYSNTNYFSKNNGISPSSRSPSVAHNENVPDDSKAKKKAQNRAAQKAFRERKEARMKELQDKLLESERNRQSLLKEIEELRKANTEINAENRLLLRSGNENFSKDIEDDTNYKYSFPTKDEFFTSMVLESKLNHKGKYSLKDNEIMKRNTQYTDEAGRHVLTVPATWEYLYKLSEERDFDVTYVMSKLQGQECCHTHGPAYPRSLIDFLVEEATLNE
In short: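 Yeast transcription factors carrying a GST tag, as full-length proteins or DNA-binding domains, were produced by PURExpress in vitro transcription/translation. About 100-200 nM protein was applied to universal all-10-mer Agilent arrays, double-stranded by primer extension on fresh or once-stripped slides. Bound protein was detected with fluorescent anti-GST, and scans were normalised with masliner. The Universal PBM Analysis Suite gave each ungapped eight-base word, pooled with its reverse complement, an E-score, a modified Wilcoxon-Mann-Whitney statistic.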

Sequence	PBM E-score
AACTCACT	-0.184
GGCCAAAC	-0.132
AGTCTTGG	-0.0781
CATTGGCA	-0.017
TCCCCGCA	-0.0831
CGGCTAGC	-0.156
GCCTAGCC	-0.0707
CGTGACCA	-0.0499
CTGTAGGA	0.0798
AGAGCCAC	-0.222
AAGCACTT	-0.0376
AAGAGGCG	0.0465
ACACAACT	0.12
AGCATTGA	-0.0431
TTCGTAAA	0.0786
AGGGAGCA	-0.309
AGCTCATA	-0.0143
CGGTAACA	0.193
CCTAGATA	0.0173
GCGAGCCC	-0.199
AATAGTCG	0.0905
GCCCGTGA	-0.169
AAAACGTT	0.122
ACCGGATA	0.106
CAATAGTC	-0.0565

Sequence	PBM E-score
CCCATGAC	0.0625
AAGGTATT	0.0804
AAGCGGTG	-0.239
CAAATAAA	0.197
ACGCGCCT	0.0287
GTGCGGGA	-0.125
GTGGACTA	0.0737
GGCAGGCA	-0.146
CCTCAAGC	-0.206
GTGATCAA	0.0619
AGTGCGCG	-0.0557
ATAGCACG	-0.0395
CCGCACGA	-0.0433
CTAATGAG	0.0989
ATGTTACC	0.134
GTTCGAAC	0.209
ATGCTCTC	-0.129
ACGTGGCG	-0.0655
CTTAAGGA	0.0593
AAACATTT	0.199
AAGACAGA	0.147
GGTGCACA	-0.0173
ATCGAAAG	0.114
TATATAGA	0.192
AGGTGCGG	-0.119

Sequence	PBM E-score
AATAACAG	0.149
CAACAGGA	-0.164
CCTATTTA	0.19
ACCGCACT	-0.0152
AGGAACCC	-0.0773
ACCTCGCT	0.0149
CTACGGGA	-0.115
ATACCCGC	0.0243
AGTCGAAG	-0.0648
CATTGATA	0.18
TGAAGTCA	0.0702
CACATATA	0.176
GCCACCCC	-0.339
ACAGACGT	-0.147
CATGAACA	0.0723
AATTCTCC	0.0757
CCCTGGAC	-0.206
GCCTATTA	0.205
CACGACAG	-0.0208
GATAGAGA	0.106
ACCGGAAT	0.0182
GAACGGAA	0.0365
CAAATGAG	-0.0385
AGTATGAG	0.0598
AGGCCGCG	-0.124

Sequence	PBM E-score
CAAACTCG	0.00872
ATTCGCAC	0.0279
CGTTAGAC	-0.0418
AATGGTTG	0.0504
AGCCCGTC	-0.315
AAAACGAA	0.224
CGGATGCC	-0.106
AATATTGG	0.165
AGTGTGTC	-0.0449
CGCAAGGA	0.0605
GGGCTATA	-0.226
ACACCCGT	-0.117
GTCCGAAA	0.171
ACGACAAT	0.129
AAGGTGGT	0.026
ACCACTAA	0.209
GCATGATA	0.184
CCAGTCAG	-0.119
CGAACAAG	0.0425
ATTAGAGA	0.041
ATACGACG	0.0574
CAACGTAG	0.051
CCGTTAGA	0.0691
GCAGACGA	-0.11
TGTGCACA	-0.175

Sequence	PBM E-score
CCCGTTGC	-0.23
GCTGCGAC	-0.0259
GCAAGTTA	0.0548
GCGGCACC	-0.0717
CTGACCCA	-0.19
CGCTCTTA	0.137
GGTTTGAA	0.0872
CATAGTGC	0.0117
CGCGGAGC	-0.179
ATATTCCG	0.181
AAGTTAGC	0.151
ACTGATAA	0.187
CTATTCTC	0.134
CATACTAA	0.195
CTGGGCAC	-0.189
ACTCCTCT	-0.128
CCGACGTC	-0.0154
TAGAGATA	0.0621
GACAGCAC	0.011
AGCGGGTC	-0.304
GACAGAAA	0.183
CAAAGAAG	-0.0377
CCATGGAG	-0.226
CCTAGCCA	-0.0764
ATATGGGA	0.0698

Sequence	PBM E-score
AAGAGAAC	0.0562
CTCACGAA	0.05
AGGAGGGG	-0.12
GCACATTA	0.0906
AACTCGCA	0.00632
AAATTGAA	0.144
AAGGAAAT	0.144
CGGCTTAC	0.148
ATCTGTCC	-0.0275
AAGAACAG	0.0639
AGTTGTAC	-0.0319
CGAGAGTC	-0.129
GTGCCGAA	-0.0809
AGGCAGGA	0.035
CGCAGCAG	-0.106
GATACCAA	0.134
CTTGACGA	-0.192
AAAGTATG	0.132
ACGTGGTA	0.0347
CAAAAAAG	0.147
AATAATAG	0.2
CTCGCAAC	0.0518
GCCTACGC	-0.1
CATCGCGC	-0.0016
GCCTAGAC	-0.206

Sequence	PBM E-score
CAGTATAA	0.249
AAACAGTC	-0.104
AGCGAATC	-0.0364
GATACTCC	-0.014
ACATTGCC	-0.0211
CGGGAGAG	-0.0876
TCGTTTCA	0.136
CGAGTCGA	0.022
ACTGGATA	0.248
CTTGCTAC	-0.0936
ATGTAGGG	-0.114
ACACTTAA	0.133
AACCCCGT	-0.0745
TCTGCTAA	0.0116
ATTAATCC	0.0925
CCCACGCA	-0.00735
ACGTGGTC	-0.135
AGTTAATG	0.16
CCGCGACA	0.0599
ATTACCCC	-0.0176
GCAATCAA	0.178
TACAATGA	0.149
GGTGAGGA	-0.0317
CTAAATAA	0.155
CGGTCATA	0.119

Sequence	PBM E-score
AAGCACGT	0.137
TAGCAAGA	0.0496
GCTACTAC	0.255
ATTTGGAC	0.0526
AACATTCT	0.128
CTGGACAC	-0.158
AACTCGTG	0.125
AAACTGTT	0.117
CAGAAGAA	-0.155
ATGCGGCG	0.098
AATCCAGA	0.138
GTCCTGAA	-0.2
CTATTCCA	0.214
TCGGACGA	0.0215
ACTAAAAT	0.211
AGCAACTG	0.0754
GCGGGGTA	0.0182
AATCGCCC	-0.258
AGGATCAT	-0.0017
AGCCCGGG	-0.299
GAAGCCAA	-0.00454
AGAACTAC	0.0198
CACCGCTG	-0.222
ACCCGCTC	-0.269
GAATGCAC	0.0837

Sequence	PBM E-score
CACAAGAG	0.0322
ATGGATCG	-0.0129
GCTGCTCA	-0.135
CGCAAAGA	0.0887
ATTAATGC	0.216
GGCACTCA	-0.178
ATAGGGAA	-0.0165
CGACAAGA	0.077
ATCCTTCC	-0.188
CTCACTCA	0.0521
TGCGCGCA	0.0889
CAGCATGC	-0.00421
ATGGCTCG	0.00097
AATGGCAA	0.0484
AGACGCTA	-0.13
CCCGGAAG	-0.193
CCCGCCTC	-0.0693
CCGGACAG	0.0448
CATAGAGA	0.102
CAATTACA	0.221
ACCACCGC	-0.161
AATGACAC	0.195
CCTAGCAC	-0.159
GGTAGGAC	-0.225
AGGTCACG	-0.185

Sequence	PBM E-score
ATAGCGGC	-0.0582
ATATTAGC	0.177
CCAGATGG	-0.251
CCATCTAC	0.0346
CTCGACGC	0.0226
TAAGATTA	0.185
ACTATAGC	-0.117
CTGTACAC	0.0466
ACGTTCAC	0.0834
CGGAAATC	0.12
CATCGTGA	-0.283
ATAGTGGA	0.0987
CGTTCGTC	0.0566
CTGTGAAC	-0.1
CTTTAGCC	-0.0274
GGCCCCTA	-0.332
CCCTTATC	-0.108
TAGGTCGA	0.12
GACAACGA	0.133
ATCAATAC	0.11
GAGATGCC	-0.0438
ACTCACTA	0.103
ATCGGCAG	-0.0334
ATACAACA	0.149
GTAGGCTA	-0.137

Look-ups from the list:
CAACGTAG – PBM E-score: 0.051
ACTGATAA – PBM E-score: 0.187

Additional results follow.

Sequence	PBM E-score
AGAGCTCC	-0.275
ACAAACGG	0.0995
ACCAACGT	0.0635
CGTGAAGC	-0.116
TGAGGAAA	0.0752
AAGCGCGT	0.138
ACATTCGC	-0.0124
AAGAGTAG	-0.0109
AAGTGGGT	0.0584
ACCGGTCT	-0.27
AGTTTCAG	-0.0512
AAGGACGC	-0.033
ATGAAAAA	0.278
CAGTTAAG	0.159
CCGGACCC	-0.278
ACGGCTAC	0.0443
TGCTATAA	0.0392
AATAAATT	0.186
ACATGCGC	0.126
AAGGGGAC	-0.164
ATCTACAA	0.0239
ACGCGCTC	-0.122
GTAATCTA	0.319
CACCATGG	-0.217
CCCTGTCG	-0.125

Sequence	PBM E-score
ATCAGGTA	0.0409
AGCCTAAA	0.0279
CACATGCA	0.0846
AAGTGGAC	-0.033
ATAGTGAG	0.0924
ATAGAGAC	0.0837
ATACAGAC	0.14
GTAAGTAA	0.183
CGAGTAGC	-0.0161
GTAGATCA	0.0396
GAGATAAC	0.145
ACTTAACC	0.0147
GAGCTCCC	-0.266
ATCAGGAG	-0.00138
AGCGCCAC	-0.208
AAAAGATC	0.0425
TGAAGTAA	0.0993
TACCTGGA	0.0806
CTTATTCC	0.109
AGCTTCAC	-0.0982
CGGCGACC	-0.246
AGGATTAG	0.00983
AAGGTGCG	-0.131
GCTGTACC	-0.157
CCGGGACA	0.0188

Quoted at random: two entries already listed
Sequence	PBM E-score
AGCGCCAC	-0.208
CGAGTAGC	-0.0161

Further entries follow.

Sequence	PBM E-score
GGTCGTAA	0.0204
ACTCTCTG	0.051
ATTTGTTC	0.321
CGCACGCC	-0.0748
CGGAATGC	0.0497
ACGTCACG	0.0608
AATGGCCC	-0.282
AGCTTACC	0.048
CCATCATA	0.083
GAGGTGAC	0.0812
GAGTGTCC	-0.0229
AATAACCT	0.139
AGGCATAC	0.09
ACATTCAA	0.0532
ACTCAGAA	0.165
AGGTTAAT	0.0553
CAGACCTG	-0.0275
CTTATCTC	0.0941
AACGAGGG	-0.0762
GAGACAAC	0.0388
AAAGCAGT	0.122
AAACAAGC	0.0955
AACGGTCC	-0.258
ACCTGCCC	-0.168
AATGCCAA	0.0604

Sequence	PBM E-score
CGCTCACC	-0.0419
GCTATACC	0.0197
AGCACCTG	-0.102
CGCACCGC	-0.16
ATCGAGGA	0.0193
ATGTATTA	0.178
GACATCGA	-0.169
GGCCCGAC	-0.177
AACTCTTA	-0.0791
GTTACGGA	-0.0561
TACTCGCA	0.145
AAGCTACC	-0.0432
ACACTCAA	0.203
ATCACAAG	-0.0228
ACTGGAGA	-0.0462
ATGCGCGA	-0.0597
TCGATCCA	-0.0884
AAAGACCC	-0.119
ATCAGCAA	0.00676

Laid out differently: entries from further up
AAGCTACC
  PBM E-score = -0.0432
ACACTCAA
  PBM E-score = 0.203
ATCACAAG
  PBM E-score = -0.0228
